Experimental data published in PubChem BioAssay AID540276 (National Center for Advancing Translational Sciences (NCATS), 2011).
The campaign covered roughly 300,000 compounds. About 5,400 (1.8%) were called active. The shares of active, inactive and inconclusive entries below differ from those in the screen. Calls come from the whole dose curve; tested in HEK293 cells. A potency beside an inconclusive call is a rough fit, not a confirmed value.

assay: qHTS for inhibitors of binding or entry into cells for Marburg Virus; conditions: Marburg virus pseudotyped entry inhibition, cell reporter; activity change, negative = inhibition: at 37.8 µM (top of the series) unless noted
% is set by controls: 0 for no effect and ±100 for the full control effect; potency is the fitted concentration of half-maximal effect.

Row | SMILES | Potency | activity change, negative = inhibition
1 | Nc1ccc(N2CCN(CCCCN3C(=O)C4CCCN4C3=O)CC2)cc1 (stereo not given) | active: 3.16 µM | 
2 | N#C/C(=C\c1cc([N+](=O)[O-])ccc1Cl)C(N)=O | inconclusive: 35.5 µM [inhibitor, single point] | 
3 | CCC(=O)NNc1nc2c(C)cc(C)cc2s1 | inconclusive: 10 µM [activator, partial curve] | 
4 | CCc1cccc(C)c1NC(=S)N(CCN(C)C)Cc1cccs1 | inconclusive: 22.4 µM [inhibitor, single point] | 
5 | CC(C)(C)NC(=O)C(c1ccncc1)N(Cc1cccs1)C(=O)Cn1nnc(-c2cccs2)n1 (stereo not given) | inactive | 
6 | CCCC(=O)Nc1cc(OC)c(NC(=S)Nc2ccc(CC)cc2)cc1OC | inconclusive: 35.5 µM [inhibitor, single point] | 
7 | C/C(CC(=O)Nc1ccc(OCc2ccccc2)cc1)=N\NC(=O)C(=O)Nc1ccccc1C |  | inactive: -19.9% [at 46.1 µM]
8 | COC(=O)c1cc2sc(Cl)cc2n1Cc1cc(C)ccc1C |  | inactive: -6.54% [at 46.1 µM]
9 | C/C(=N\Nc1ccc([N+](=O)[O-])cc1)c1ccc(N)cc1 | inconclusive: 29.1 µM [activator, single point] | 
10 | COc1ccc([C@]23Cc4cc(C#N)ccc4[C@H](O2)c2c(cc(-c4ccccc4)oc2=O)O3)cc1 |  | inactive: 7.02% [at 14.2 µM]
11 | CC(=O)NC1(C(F)(F)F)N=C(c2ccccc2)NC1=O (stereo not given) | inconclusive: 8.91 µM [activator, partial curve, poor fit] | 
12 | CCOC(=O)/C=C1\NC(=O)CS1 |  | inactive: 0.53%
13 | CCOC(=O)[C@H]1CCCN(c2nc3ccccc3nc2[C@@H](C#N)C(=O)O[C@@H](C)COC)C1 |  | inactive: -1.88%
14 | C=CCn1c(=O)/c(=C/c2ccc(C)o2)s/c1=C(/C#N)C(=O)c1ccccc1 | inconclusive: 0.411 µM [inhibitor, full curve, poor fit] | 
15 | CCC(C)OC(=O)c1c(N)n(Cc2cccs2)c2nc3ccccc3nc12 (stereo not given) | inconclusive: 0.517 µM [inhibitor, partial curve, poor fit] | 
16 | O=C(NCCc1ccccc1)c1noc2c1CCCCC2 | inconclusive: 32.6 µM [inhibitor, single point] | 
17 | Cc1cc(C(=O)N(C)CC(=O)Nc2cccc(F)c2)no1 |  | inactive: -9.64%
18 | Cc1ccc(N2C(=O)N(CC(=O)Nc3cccc(C)c3C)C(=O)C2C)cc1 (stereo not given) |  | inactive: 13.4%
19 | Cc1ccc(C(=O)N2CCN(c3ccccc3)CC2)cc1C |  | inactive: -0.812%
20 | COc1ccc2c(c1)NP(=S)(Oc1ccccc1)N2 (stereo not given) |  | inactive: 1.23%
21 | COc1ccccc1OCC(=O)NCC(c1ccc(Cl)cc1)N1CCOCC1 (stereo not given) | inconclusive: 5.62 µM [inhibitor, single point] | 
22 | CCOc1ccccc1/C=N/NC(=O)c1ccc(Cn2cc([N+](=O)[O-])cn2)o1 |  | inactive: -7.93%
23 | Cn1ncc([N+](=O)[O-])c1C(=O)Nc1ccc(-c2nc3ccccc3[nH]2)cc1 |  | inactive: -0.0025%

Row | SMILES | Potency | activity change, negative = inhibition
24 | CCOc1ccc(CN=C(N)N=C(N)N)cc1Cl | inconclusive: 17.8 µM [inhibitor, single point] | 
25 | Cc1ccc(NC(=O)Cn2c(=O)n(CCCCC(=O)NCc3ccccc3Cl)c(=O)c3ccccc32)cc1 | inconclusive: 6.31 µM [inhibitor, single point] | 
26 | Cc1ccc(C)c(CN2C(=O)c3ccccc3S(=O)c3ccc(C(=O)N4CCN(c5cccc(Cl)c5)CC4)cc32)c1 (stereo not given) | inconclusive: 35.5 µM [inhibitor, single point] | 
27 | CCCCN1C(=O)/C(=C2/C=CC=CN2C)SC1=S | inconclusive: 9.2 µM [activator, partial curve] | 
28 | Nc1ccc2c(c1)C(=O)c1cc(N)c(Cl)cc1-2 | inconclusive: 3.98 µM [inhibitor, partial curve, poor fit] | 
29 | Cc1ccc(NC(=O)CN(C)S(=O)(=O)c2cnc[nH]2)cc1 |  | inactive: -0.204% [at 46.1 µM]
30 | Cc1cc(C(=O)Nc2cccc(/C=C/C(=O)O)c2)c(C)o1 | inconclusive: 1.16 µM [inhibitor, partial curve, poor fit] | 
31 | COc1ccc(NS(=O)(=O)c2cccc(C(=O)O)c2)cc1S(=O)(=O)N1CCOCC1 | inconclusive: 6.31 µM [activator, single point] | 
32 | CCN1CCN(CCCNC(=O)c2ccc3c(Cl)c4c(nc3c2)CCCC4)CC1 | inconclusive: 5.62 µM [inhibitor, partial curve, poor fit] | 
33 | CCC1(CC)CNC(=O)NC1=O | inconclusive: 1.26 µM [activator, partial curve, poor fit] | 
34 | c1ccc(Nc2nc(-c3cccs3)cs2)nc1 | inconclusive: 35.5 µM [inhibitor, single point] | 
35 | COc1ccccc1N1C(C)=CC(=C(C#N)c2nc3ccccc3s2)C=C1C | inconclusive: 22.4 µM [inhibitor, partial curve, poor fit] | 
36 | N#C/C(=C(/O)CCl)c1nc2ccccc2[nH]1 | inconclusive: 28.2 µM [inhibitor, single point] | 
37 | CC(C)(C)C(=O)Nc1sc2c(c1C#N)CCC2 | inconclusive: 7.08 µM [activator, partial curve, poor fit] | 
38 | CC(=O)Nc1ccc(N2CCCC2)cc1 |  | inactive: 0.616%
39 | CCOc1ccc(NC(=O)c2ccco2)c([N+](=O)[O-])c1 | inconclusive: 0.708 µM [activator, partial curve, poor fit] | 
40 | C=CCN(CC=C)c1cnn(-c2nc3ccccc3[nH]2)c(=O)c1Cl | inconclusive: 16.4 µM [inhibitor, single point] | 
41 | COc1ccc2c(c1)-c1c(ssc1=S)C(C)(C)N2C(=O)CSC1=NCCS1 | inconclusive: 16.4 µM [inhibitor, single point] | 
42 | Cn1cnnc1SCC(=O)Nc1cccc(S(=O)(=O)N2CCCCCC2)c1 | inconclusive: 35.5 µM [activator, single point] | 
43 | Cc1ccc(C(=O)NCCOc2ccc(Cl)cc2)cc1 | inconclusive: 5.01 µM [activator, full curve, poor fit] | 
44 | COC(=O)N1[C@H](Cc2ccccc2)C=C[C@]1(C)C(=O)NCc1ccccn1 |  | inactive: 26.8%
45 | CCCN(CC(=O)Nc1ccccc1C)C(=O)c1cccc(S(=O)(=O)N2CCN(c3ccccc3)CC2)c1 | inconclusive: 12.6 µM [inhibitor, partial curve, poor fit] | 

Part of the list above in a different format.
Row	SMILES	Potency	activity change, negative = inhibition
40	C=CCN(CC=C)c1cnn(-c2nc3ccccc3[nH]2)c(=O)c1Cl	inconclusive: 16.4 µM [inhibitor, single point]	
41	COc1ccc2c(c1)-c1c(ssc1=S)C(C)(C)N2C(=O)CSC1=NCCS1	inconclusive: 16.4 µM [inhibitor, single point]	
42	Cn1cnnc1SCC(=O)Nc1cccc(S(=O)(=O)N2CCCCCC2)c1	inconclusive: 35.5 µM [activator, single point]	
